Laboratory results from patent US20230382979A1.
Results are given in words; binding and its absence hold for the method and conditions named.

Molecular target: human coronavirus HCOV-229E (human coronavirus 229E)
Assay: dose-response ELISA on coated spike antigen

B1: antibody 1823 (antibody, V domains shown)
VH: EVQLVESGGGLVKPGGSLRLSCVASGFSFGLYTMNWVRQAPGKGLEWVSYISSSTSYKYYADSVKGRVSVSRDNAKNSLYLQLNGLRVEDTAVYYCARDGYCPNGICTYYGMDVWGQGTTVTVSA
VL: EIVMTQSPATLSVSPGERATLSCRASQSVSSNLAWYQQKPGQAPRLLIYGASTRATGIPARFSGSGSGTEFTLTITGLQSEDFAVYYCQQYDKWPPAYSFGQGTKVEIK
binding: no binding (tested: 10000 ng/ml)
